For three substances, binding results are on record in paper doi:10.1101/2024.08.15.608058.

By UniProt entry, the sequences of proteins in these tests, tags left out.
UniProt Q5TEA3: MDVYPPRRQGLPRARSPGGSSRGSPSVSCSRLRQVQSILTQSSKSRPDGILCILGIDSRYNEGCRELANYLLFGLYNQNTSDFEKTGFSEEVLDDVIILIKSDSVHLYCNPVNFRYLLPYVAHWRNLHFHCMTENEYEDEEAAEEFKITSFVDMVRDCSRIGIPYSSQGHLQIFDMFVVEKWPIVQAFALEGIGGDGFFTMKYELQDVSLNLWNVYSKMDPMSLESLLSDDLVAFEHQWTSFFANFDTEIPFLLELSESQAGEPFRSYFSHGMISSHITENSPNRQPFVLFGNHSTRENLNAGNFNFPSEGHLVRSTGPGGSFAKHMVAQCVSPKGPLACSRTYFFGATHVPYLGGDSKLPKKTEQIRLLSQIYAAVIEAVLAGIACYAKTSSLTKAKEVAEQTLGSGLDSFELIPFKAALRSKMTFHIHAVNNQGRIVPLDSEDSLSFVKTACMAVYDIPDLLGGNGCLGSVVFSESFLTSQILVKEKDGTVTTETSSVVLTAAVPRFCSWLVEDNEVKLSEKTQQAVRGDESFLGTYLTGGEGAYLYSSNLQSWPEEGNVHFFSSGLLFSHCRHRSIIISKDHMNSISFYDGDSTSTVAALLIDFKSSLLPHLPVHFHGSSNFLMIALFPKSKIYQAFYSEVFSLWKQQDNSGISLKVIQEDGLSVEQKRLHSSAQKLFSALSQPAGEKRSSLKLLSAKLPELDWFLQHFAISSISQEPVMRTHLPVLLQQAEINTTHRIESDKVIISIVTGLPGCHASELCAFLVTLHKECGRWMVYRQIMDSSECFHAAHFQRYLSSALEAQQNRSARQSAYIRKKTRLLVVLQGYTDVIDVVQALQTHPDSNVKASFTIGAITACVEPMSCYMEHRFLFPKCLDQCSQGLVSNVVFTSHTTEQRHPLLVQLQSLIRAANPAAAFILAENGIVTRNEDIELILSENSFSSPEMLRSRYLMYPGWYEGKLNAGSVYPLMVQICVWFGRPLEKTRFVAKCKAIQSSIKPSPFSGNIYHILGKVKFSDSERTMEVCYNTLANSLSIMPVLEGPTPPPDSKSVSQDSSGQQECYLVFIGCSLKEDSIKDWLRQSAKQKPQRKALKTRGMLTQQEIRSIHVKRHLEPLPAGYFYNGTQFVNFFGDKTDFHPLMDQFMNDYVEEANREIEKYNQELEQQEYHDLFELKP

These are yes or no findings as the source states them, for the method shown. Binding calls can cover weak binding; strength is not graded here.

Assay [1] deals with recombinant human C20orf194/DNAAF9 (human) (UniProt Q5TEA3). Put plainly: SEC.
Assay [2] shares this target. Put plainly: SEC. This is another data set of the same source. In general terms: In gel filtration, larger molecules generally elute earlier.
For assay [3], the target named is T1, recombinant Tetrahymena thermophila Shulin (Tetrahymena thermophila) (UniProt Q22YU3).
T1 sequence: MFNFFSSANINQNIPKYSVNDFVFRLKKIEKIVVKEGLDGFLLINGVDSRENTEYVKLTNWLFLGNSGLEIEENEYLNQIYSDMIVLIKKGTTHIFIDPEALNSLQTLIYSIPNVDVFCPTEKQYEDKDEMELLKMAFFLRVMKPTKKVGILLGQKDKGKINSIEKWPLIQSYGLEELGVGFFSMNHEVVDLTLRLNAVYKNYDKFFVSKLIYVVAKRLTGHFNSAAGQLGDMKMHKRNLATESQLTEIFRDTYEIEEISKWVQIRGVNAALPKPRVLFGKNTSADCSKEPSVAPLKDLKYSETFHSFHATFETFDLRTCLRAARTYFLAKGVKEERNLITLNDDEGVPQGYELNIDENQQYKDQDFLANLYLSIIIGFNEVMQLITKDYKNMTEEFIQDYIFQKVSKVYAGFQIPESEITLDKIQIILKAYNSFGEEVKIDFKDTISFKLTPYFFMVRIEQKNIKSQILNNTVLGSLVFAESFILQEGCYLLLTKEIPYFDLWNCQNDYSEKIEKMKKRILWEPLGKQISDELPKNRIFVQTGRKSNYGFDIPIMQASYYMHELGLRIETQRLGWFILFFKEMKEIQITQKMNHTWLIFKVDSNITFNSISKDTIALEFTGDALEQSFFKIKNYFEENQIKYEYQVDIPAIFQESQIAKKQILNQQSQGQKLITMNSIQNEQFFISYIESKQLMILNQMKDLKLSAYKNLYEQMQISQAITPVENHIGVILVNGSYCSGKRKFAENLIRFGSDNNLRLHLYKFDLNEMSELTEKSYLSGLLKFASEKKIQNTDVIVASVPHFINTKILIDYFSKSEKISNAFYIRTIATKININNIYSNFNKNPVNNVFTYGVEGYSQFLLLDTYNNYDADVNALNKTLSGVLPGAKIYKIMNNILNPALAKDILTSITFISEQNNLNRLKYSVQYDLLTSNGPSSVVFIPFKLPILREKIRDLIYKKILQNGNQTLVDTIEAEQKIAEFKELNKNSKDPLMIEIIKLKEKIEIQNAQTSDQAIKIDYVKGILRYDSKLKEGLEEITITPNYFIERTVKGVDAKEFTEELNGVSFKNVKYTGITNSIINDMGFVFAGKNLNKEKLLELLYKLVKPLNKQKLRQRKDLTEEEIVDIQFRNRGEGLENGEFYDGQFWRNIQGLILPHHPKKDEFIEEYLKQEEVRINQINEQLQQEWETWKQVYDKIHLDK
Put plainly: SEC.

The target of assay [4] is T1, recombinant Tetrahymena thermophila Shulin (Tetrahymena thermophila). Put plainly: SEC. The source holds these as a separate data set.
For assay [5], the target named is recombinant human C20orf194/DNAAF9 (human) (UniProt Q5TEA3). Put plainly: negative-stain electron microscopy.
The target in assay [6] is T1, recombinant Tetrahymena thermophila Shulin (Tetrahymena thermophila). Put plainly: negative-stain electron microscopy.

Regarding “Tetrahymena thermophila Arl3 Q70L (GTP mimicking variant) (from UniProt Q229S0)”, the binding entry in assay [1], in assay [2], in assay [3], in assay [4], in assay [5] and in assay [6] was “binds” in each case.
Take “Tetrahymena thermophila Arl3 T30N (GDP mimicking variant) (from UniProt Q229S0)”: the binding entry was “binds” in assay [1] and “no binding (only in the presence of GDP)” in assay [2].
In the same order, the values of “Tetrahymena thermophila small GTPase Arl3, wildtype (from UniProt Q229S0)” are “binds” and “no binding (only in the presence of GDP)”.
